Assay results published in US9168286B2, “Methods and compositions for use in treatment of patients with autoantibody positive disease” (Human Genome Sciences, Inc., priority 2005, dated 2015).
At least one structure is not confirmed: it was looked up by name or label, or the drawing left a doubt.

Tested on: B cells
Test: B cell survival assay
Assay type: cell-based, mouse
Settings: for effect on Neutrokine-alpha-mediated enhancement of B cell survival (viable cells): 50 nM rapamycin, 100 ng/ml rhuNeutrokine-alpha, 4 days
Text: Mice: Pim-1^+/+2^+/+, Pim-1^−/−2^+/+, Pim-1^+/+2^−/− and Pim-1^−/−2^−/− mice were generated from Pim-1^+/−2^+/− stock of Paul Rothman Columbia University, New York, N.Y. C57BL/6 (B6) mice were from The Jackson Laboratory, Bar Harbor Me. or from the National Cancer Institute Production Program, NCI-Fredrick, Fredrick Md. Animals were bred and maintained at the Univ. of Pennsylvania, Harvard Medical School, or the Univ. of Massachusetts Medical School in accordance with Institutional Animal Care and Use Committee guidelines.
B cell purification: Splenic B cells were obtained by anti-thy1.2 and complement treatment of splenocytes followed by purification of resting B cells using a step wise percoll gradient and harvesting cells at the 60-70% interface. In some experiments CD23′ B cells were obtained by positive selection and magnetic separation of splenocytes suspensions using biotinylated anti-CD23 antibody (BD Biosciences-Pharmingen, San Diego Calif.) and streptavidin-coated microbeads (Miltenyi Biotec, Auburn Calif.). CD23′ B cells were not size selected on Percoll as environmental activation in vivo leads to the loss of CD23. B cells prepared by antibody and Percoll were >90% B220^+, whereas CD23′ B cells were >95% pure.
Cell cultures: Purified B cells or CD23′ B cells were cultured in RPMI-1640 supplemented with 2-mercaptoethanol, MEM-non-essential amino acids, glutamine, penicillin and streptomycin (complete media, CM). For B cell survival and other assays recombinant human Neutrokine-alpha made at Human Genome Sciences, Rockville Md. was used at 50-100 ng/ml. FLAG-tagged human Neutrokine-alpha was from Dr. Randolph Noelle, Dartmouth Medical School. […]
Survival assays: B cells at 5×10^6/ml were cultured in 24-well tissue culture dishes in CM at 37° C. […] Survival was monitored daily by counting viable cells using trypan blue exclusion with each determination done in triplicate.
Rapamycin is a potent inhibitor of mTOR and a potent suppressor of B cell proliferation and differentiation. […] Viable cells were determined at day 4. […]

CO[C@H]1C[C@@H]2CC[C@@H](C)[C@@](O)(O2)C(=O)C(=O)N2CCCC[C@H]2C(=O)O[C@H]([C@H](C)C[C@@H]2CC[C@@H](O)[C@H](OC)C2)CC(=O)[C@H](C)/C=C(\C)[C@@H](O)[C@@H](OC)C(=O)[C@H](C)C[C@H](C)/C=C/C=C/C=C/1C [rapamycin]
sensitivity of Neutrokine-alpha-mediated survival to rapamycin (Pim-1+/−2−/− B cells (deficient only in Pim 2)): as sensitive to rapamycin as Pim-1^−/−2^−/− B cells
effect on Neutrokine-alpha-mediated enhancement of B cell survival (viable cells) (Pim-1−/−2−/− B cells): abrogated Neutrokine-alpha's ability to enhance B cell survival
effect on Neutrokine-alpha-mediated enhancement of B cell survival (viable cells) (total B or CD23+ B cells from normal donors): did not prevent Neutrokine-alpha-mediated enhancement of survival
